{"source": "PubChem BioAssay AID493246 (Drosophila RNAi Screening Center, 2011)", "test": "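Genes fly cells need to grow and stay alive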 (primary screen)", "cells": "Drosophila Kc and S2R+ cells", "reagents": "long dsRNA against Drosophila genes", "measurement": "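Cell number per well after knock-down, printed as raw plate values; calls were based on per-plate z-scores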", "scale": "Kc cell number and S2R+ cell number: higher = more cells remaining", "rule for the call": "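Counted as a hit if cell number falls by a z-score of at least 3 within its plate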", "note": "The deposit covers about 21,000 reagents; shown is a random part of those that have a named target and a result. Over the whole deposit, 429 (2%) were called active. 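Values are raw and not normalised between plates; calls rest on per-plate z-scores that were not deposited.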 The numbers tell different reagents against one gene apart. Names joined by + are all predicted targets of the reagent. Not given: the amount of reagent, the time to read-out."}
{"gene knocked down": "CG14410 (GeneID 32409)", "reagent no.": 1, "Kc cell number, rep 1": 1.63e6, "Kc cell number, rep 2": 1.62e6, "S2R+ cell number, rep 1": 1.22e6, "S2R+ cell number, rep 2": 1.29e6, "outcome": "inactive"}
{"gene knocked down": "SelG (GeneID 32149)", "reagent no.": 1, "Kc cell number, rep 1": 6.09e5, "S2R+ cell number, rep 1": 8.78e5, "outcome": "inactive"}
{"gene knocked down": "Gdap1 (GeneID 38597)", "reagent no.": 1, "Kc cell number, rep 1": 1.52e6, "Kc cell number, rep 2": 1.38e6, "S2R+ cell number, rep 1": 1.18e6, "S2R+ cell number, rep 2": 1.20e6, "outcome": "inactive"}
{"gene knocked down": "ap (GeneID 35509)", "reagent no.": 1, "Kc cell number, rep 1": 1.42e6, "Kc cell number, rep 2": 1.47e6, "S2R+ cell number, rep 1": 1.01e6, "S2R+ cell number, rep 2": 1.10e6, "outcome": "inactive"}
{"gene knocked down": "Taldo (GeneID 37804)", "reagent no.": 1, "Kc cell number, rep 1": 1.24e6, "Kc cell number, rep 2": 1.32e6, "S2R+ cell number, rep 1": 1.07e6, "S2R+ cell number, rep 2": 1.04e6, "outcome": "inactive"}
{"gene knocked down": "fws (GeneID 35054)", "reagent no.": 1, "Kc cell number, rep 1": 1.09e6, "Kc cell number, rep 2": 1.33e6, "S2R+ cell number, rep 1": 1.03e6, "S2R+ cell number, rep 2": 1.04e6, "outcome": "inactive"}
{"gene knocked down": "CG9737 (GeneID 43600)", "reagent no.": 1, "Kc cell number, rep 1": 1.49e6, "Kc cell number, rep 2": 1.54e6, "S2R+ cell number, rep 1": 9.87e5, "S2R+ cell number, rep 2": 1.13e6, "outcome": "inactive"}
{"gene knocked down": "Ras85D (GeneID 41140)", "reagent no.": 1, "Kc cell number, rep 1": 1.42e6, "Kc cell number, rep 2": 1.32e6, "S2R+ cell number, rep 1": 1.06e6, "S2R+ cell number, rep 2": 1.18e6, "outcome": "inactive"}
{"gene knocked down": "CG33013 (retired record) (GeneID 318830)", "reagent no.": 1, "Kc cell number, rep 1": 1.44e6, "Kc cell number, rep 2": 1.52e6, "S2R+ cell number, rep 1": 1.28e6, "S2R+ cell number, rep 2": 1.35e6, "outcome": "inactive"}
{"gene knocked down": "rib (GeneID 44855)", "reagent no.": 1, "Kc cell number, rep 1": 1.38e6, "Kc cell number, rep 2": 1.40e6, "S2R+ cell number, rep 1": 1.15e6, "S2R+ cell number, rep 2": 1.20e6, "outcome": "inactive"}
{"gene knocked down": "CG13042 (GeneID 39798)", "reagent no.": 1, "Kc cell number, rep 1": 1.58e6, "Kc cell number, rep 2": 1.56e6, "S2R+ cell number, rep 1": 1.22e6, "S2R+ cell number, rep 2": 1.32e6, "outcome": "inactive"}
{"gene knocked down": "sha (GeneID 36213)", "reagent no.": 1, "Kc cell number, rep 1": 1.51e6, "Kc cell number, rep 2": 1.52e6, "S2R+ cell number, rep 1": 1.13e6, "S2R+ cell number, rep 2": 1.26e6, "outcome": "inactive"}
{"gene knocked down": "Unc-115b + p24-2", "reagent no.": 1, "Kc cell number, rep 1": 1.47e6, "Kc cell number, rep 2": 1.50e6, "S2R+ cell number, rep 1": 1.22e6, "S2R+ cell number, rep 2": 1.30e6, "outcome": "inactive"}
{"gene knocked down": "bma (GeneID 5740442)", "reagent no.": 1, "Kc cell number, rep 1": 1.30e6, "Kc cell number, rep 2": 1.29e6, "S2R+ cell number, rep 1": 1.34e6, "S2R+ cell number, rep 2": 1.39e6, "outcome": "inactive"}
{"gene knocked down": "bma (GeneID 5740442)", "reagent no.": 2, "Kc cell number, rep 1": 1.22e6, "Kc cell number, rep 2": 1.29e6, "S2R+ cell number, rep 1": 1.37e6, "S2R+ cell number, rep 2": 1.33e6, "outcome": "inactive"}
{"gene knocked down": "CG13228 (GeneID 36178)", "reagent no.": 1, "Kc cell number, rep 1": 1.59e6, "Kc cell number, rep 2": 1.63e6, "S2R+ cell number, rep 1": 1.25e6, "S2R+ cell number, rep 2": 1.37e6, "outcome": "inactive"}
{"gene knocked down": "Lcp65Ac (GeneID 38708)", "reagent no.": 1, "Kc cell number, rep 1": 1.42e6, "Kc cell number, rep 2": 1.38e6, "S2R+ cell number, rep 1": 1.07e6, "S2R+ cell number, rep 2": 1.20e6, "outcome": "inactive"}
{"gene knocked down": "blot (GeneID 39939)", "reagent no.": 1, "Kc cell number, rep 1": 1.41e6, "Kc cell number, rep 2": 1.54e6, "S2R+ cell number, rep 1": 1.09e6, "S2R+ cell number, rep 2": 1.37e6, "outcome": "inactive"}
{"gene knocked down": "blot (GeneID 39939)", "reagent no.": 2, "Kc cell number, rep 1": 1.41e6, "Kc cell number, rep 2": 1.49e6, "S2R+ cell number, rep 1": 9.01e5, "S2R+ cell number, rep 2": 1.01e6, "outcome": "inactive"}
{"gene knocked down": "CG14543 (GeneID 43167)", "reagent no.": 1, "Kc cell number, rep 1": 1.47e6, "Kc cell number, rep 2": 1.62e6, "S2R+ cell number, rep 1": 9.71e5, "S2R+ cell number, rep 2": 1.08e6, "outcome": "inactive"}
{"gene knocked down": "CG6254 (GeneID 41244)", "reagent no.": 1, "Kc cell number, rep 1": 1.66e6, "Kc cell number, rep 2": 1.74e6, "S2R+ cell number, rep 1": 1.27e6, "S2R+ cell number, rep 2": 1.40e6, "outcome": "inactive"}
{"gene knocked down": "CG13116 (GeneID 34288)", "reagent no.": 1, "Kc cell number, rep 1": 1.48e6, "Kc cell number, rep 2": 1.45e6, "S2R+ cell number, rep 1": 1.05e6, "S2R+ cell number, rep 2": 1.16e6, "outcome": "inactive"}
{"gene knocked down": "CG33722 + CG18749", "reagent no.": 1, "Kc cell number, rep 1": 1.44e6, "Kc cell number, rep 2": 1.41e6, "S2R+ cell number, rep 1": 1.10e6, "S2R+ cell number, rep 2": 1.24e6, "outcome": "inactive"}
{"gene knocked down": "CG33722 + CG18749", "reagent no.": 2, "Kc cell number, rep 1": 1.55e6, "Kc cell number, rep 2": 1.55e6, "S2R+ cell number, rep 1": 1.35e6, "S2R+ cell number, rep 2": 1.51e6, "outcome": "inactive"}
{"gene knocked down": "LPCAT (GeneID 31899)", "reagent no.": 1, "Kc cell number, rep 1": 1.75e6, "Kc cell number, rep 2": 1.79e6, "S2R+ cell number, rep 1": 1.07e6, "S2R+ cell number, rep 2": 1.30e6, "outcome": "inactive"}
{"gene knocked down": "LPCAT (GeneID 31899)", "reagent no.": 2, "Kc cell number, rep 1": 1.74e6, "Kc cell number, rep 2": 1.58e6, "S2R+ cell number, rep 1": 1.06e6, "S2R+ cell number, rep 2": 1.13e6, "outcome": "inactive"}
{"gene knocked down": "CG33307 (GeneID 2768914)", "reagent no.": 1, "Kc cell number, rep 1": 1.55e6, "Kc cell number, rep 2": 1.61e6, "S2R+ cell number, rep 1": 1.15e6, "S2R+ cell number, rep 2": 1.30e6, "outcome": "inactive"}

Reformatted: 2 of the entries above.
gene knocked down,reagent no.,"Kc cell number, rep 1","Kc cell number, rep 2","S2R+ cell number, rep 1","S2R+ cell number, rep 2",outcome
ap (GeneID 35509),1,1.42e6,1.47e6,1.01e6,1.10e6,inactive
Taldo (GeneID 37804),1,1.24e6,1.32e6,1.07e6,1.04e6,inactive
